Test results taken from paper PMC11775196.
No constants are given. Whether binding was seen depends on the method and setting. Binding seen in cells or lysates may run through a third protein. Here binding means that the protein was enriched with, or labelled near, the bait; the list need not be complete.

Amino acid sequences for entries named in this document (tags omitted).
UniProt Q12857: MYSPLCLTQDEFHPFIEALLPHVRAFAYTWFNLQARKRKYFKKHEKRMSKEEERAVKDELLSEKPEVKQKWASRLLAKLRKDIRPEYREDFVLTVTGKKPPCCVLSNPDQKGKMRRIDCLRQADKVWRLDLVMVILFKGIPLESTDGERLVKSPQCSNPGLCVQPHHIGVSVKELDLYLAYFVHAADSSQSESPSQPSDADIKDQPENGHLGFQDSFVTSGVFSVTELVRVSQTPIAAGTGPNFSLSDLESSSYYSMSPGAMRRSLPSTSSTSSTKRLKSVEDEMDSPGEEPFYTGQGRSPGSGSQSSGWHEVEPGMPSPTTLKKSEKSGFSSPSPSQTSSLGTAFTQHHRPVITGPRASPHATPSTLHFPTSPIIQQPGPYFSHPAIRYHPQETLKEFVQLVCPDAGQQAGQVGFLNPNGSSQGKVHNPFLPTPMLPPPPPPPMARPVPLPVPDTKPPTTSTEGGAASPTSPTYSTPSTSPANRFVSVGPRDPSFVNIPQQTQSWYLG
UniProt P08651: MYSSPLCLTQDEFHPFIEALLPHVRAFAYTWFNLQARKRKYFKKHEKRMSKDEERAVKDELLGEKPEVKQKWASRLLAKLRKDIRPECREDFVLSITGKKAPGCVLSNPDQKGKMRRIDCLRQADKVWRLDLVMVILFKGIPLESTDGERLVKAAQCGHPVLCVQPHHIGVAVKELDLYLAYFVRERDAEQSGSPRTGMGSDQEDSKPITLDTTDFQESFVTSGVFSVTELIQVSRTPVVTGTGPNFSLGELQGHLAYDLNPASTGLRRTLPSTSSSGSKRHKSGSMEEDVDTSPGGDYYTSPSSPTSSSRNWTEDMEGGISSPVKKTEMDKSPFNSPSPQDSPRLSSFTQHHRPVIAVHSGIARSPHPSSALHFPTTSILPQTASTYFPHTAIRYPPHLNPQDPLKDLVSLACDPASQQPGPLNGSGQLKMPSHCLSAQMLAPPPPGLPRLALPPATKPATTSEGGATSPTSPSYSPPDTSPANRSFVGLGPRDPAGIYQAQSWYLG
UniProt Q12824: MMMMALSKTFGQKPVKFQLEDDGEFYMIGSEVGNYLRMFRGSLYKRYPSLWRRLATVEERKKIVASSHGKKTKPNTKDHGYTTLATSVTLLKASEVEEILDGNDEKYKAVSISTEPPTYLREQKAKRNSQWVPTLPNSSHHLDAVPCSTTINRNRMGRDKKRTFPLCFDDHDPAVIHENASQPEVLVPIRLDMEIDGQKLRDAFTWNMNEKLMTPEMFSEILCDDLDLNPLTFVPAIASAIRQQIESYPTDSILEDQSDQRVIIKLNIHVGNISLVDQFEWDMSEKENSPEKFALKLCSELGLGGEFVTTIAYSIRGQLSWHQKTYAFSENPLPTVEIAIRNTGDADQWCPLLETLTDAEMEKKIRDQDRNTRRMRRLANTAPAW
UniProt Q92922: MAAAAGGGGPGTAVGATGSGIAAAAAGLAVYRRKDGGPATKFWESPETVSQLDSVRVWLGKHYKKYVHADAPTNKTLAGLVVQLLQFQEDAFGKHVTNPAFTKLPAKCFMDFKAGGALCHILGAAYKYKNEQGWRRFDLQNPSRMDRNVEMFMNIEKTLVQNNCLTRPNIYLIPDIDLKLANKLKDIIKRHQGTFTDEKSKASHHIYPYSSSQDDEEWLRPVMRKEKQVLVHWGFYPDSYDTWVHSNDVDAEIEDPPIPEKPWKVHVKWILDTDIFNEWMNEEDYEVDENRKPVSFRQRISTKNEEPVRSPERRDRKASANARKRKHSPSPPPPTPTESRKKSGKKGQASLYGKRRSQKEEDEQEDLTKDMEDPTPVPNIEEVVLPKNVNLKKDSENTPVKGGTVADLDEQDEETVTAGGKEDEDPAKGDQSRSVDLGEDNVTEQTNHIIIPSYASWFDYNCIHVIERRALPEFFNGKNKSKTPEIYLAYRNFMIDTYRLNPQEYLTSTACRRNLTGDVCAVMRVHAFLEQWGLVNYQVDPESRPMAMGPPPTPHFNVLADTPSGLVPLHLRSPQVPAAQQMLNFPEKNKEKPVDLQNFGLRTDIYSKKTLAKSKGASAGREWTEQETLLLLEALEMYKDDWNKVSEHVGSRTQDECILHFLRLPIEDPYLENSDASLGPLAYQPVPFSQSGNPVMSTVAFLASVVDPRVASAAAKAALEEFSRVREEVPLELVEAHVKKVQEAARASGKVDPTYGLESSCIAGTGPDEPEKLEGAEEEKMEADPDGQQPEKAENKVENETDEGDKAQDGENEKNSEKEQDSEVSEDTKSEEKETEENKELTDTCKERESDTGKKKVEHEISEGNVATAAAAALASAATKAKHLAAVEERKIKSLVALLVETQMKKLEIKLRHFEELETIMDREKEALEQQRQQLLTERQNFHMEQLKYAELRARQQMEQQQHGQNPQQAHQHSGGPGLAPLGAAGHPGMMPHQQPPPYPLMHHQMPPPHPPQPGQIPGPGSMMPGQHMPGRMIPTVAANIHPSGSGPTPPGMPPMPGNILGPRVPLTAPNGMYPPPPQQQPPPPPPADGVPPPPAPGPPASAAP
UniProt Q969G3: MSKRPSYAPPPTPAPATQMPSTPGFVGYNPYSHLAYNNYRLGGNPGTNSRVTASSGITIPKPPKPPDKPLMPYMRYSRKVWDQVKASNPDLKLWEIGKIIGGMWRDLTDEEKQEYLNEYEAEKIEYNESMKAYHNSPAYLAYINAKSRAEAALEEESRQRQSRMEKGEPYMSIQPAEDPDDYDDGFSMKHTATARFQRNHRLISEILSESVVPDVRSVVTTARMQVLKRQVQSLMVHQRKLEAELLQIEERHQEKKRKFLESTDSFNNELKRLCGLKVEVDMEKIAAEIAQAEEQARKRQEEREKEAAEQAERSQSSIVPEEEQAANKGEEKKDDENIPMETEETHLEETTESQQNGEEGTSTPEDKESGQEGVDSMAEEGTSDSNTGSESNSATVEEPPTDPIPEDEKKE

B1: CPEB4 (protein, UniProt Q17RY0 1-729)
chain: MGDYGFGVLVQSNTGNKSAFPVRFHPHLQPPHHHQNATPSPAAFINNNTAANGSSAGSAWLFPAPATHNIQDEILGSEKAKSQQQEQQDPLEKQQLSPSPGQEAGILPETEKAKSEENQGDNSSENGNGKEKIRIESPVLTGFDYQEATGLGTSTQPLTSSASSLTGFSNWSAAIAPSSSTIINEDASFFHQGGVPAASANNGALLFQNFPHHVSPGFGGSFSPQIGPLSQHHPHHPHFQHHHSQHQQQRRSPASPHPPPFTHRNAAFNQLPHLANNLNKPPSPWSSYQSPSPTPSSSWSPGGGGYGGWGGSQGRDHRRGLNGGITPLNSISPLKKNFASNHIQLQKYARPSSAFAPKSWMEDSLNRADNIFPFPDRPRTFDMHSLESSLIDIMRAENDTIKGRLNYSYPGSDSSLLINARTYGRRRGQSSLFPMEDGFLDDGRGDQPLHSGLGSPHCFSHQNGERVERYSRKVFVGGLPPDIDEDEITASFRRFGPLIVDWPHKAESKSYFPPKGYAFLLFQDESSVQALIDACIEEDGKLYLCVSSPTIKDKPVQIRPWNLSDSDFVMDGSQPLDPRKTIFVGGVPRPLRAVELAMIMDRLYGGVCYAGIDTDPELKYPKGAGRVAFSNQQSYIAAISARFVQLQHGEIDKRVEVKPYVLDDQLCDECQGARCGGKFAPFFCANVTCLQYYCEYCWAAIHSRAGREFHKPLVKEGGDRPRHISFRWN

How the values were obtained:
[1] = biological target: MAC3-N-tagged NFIA (human) (UniProt Q12857); assay: affinity purification with mass spectrometry; MAC3-N-tagged NFI baits in Flp-In T-REx 293 cells induced with 2 ug/ml tetracycline for 24 h; lysis in 50 mM HEPES pH 8.0, 5 mM EDTA, 150 mM NaCl, 50 mM NaF, 0.5% NP40; capture on Strep-Tactin beads, elution with biotin; HCIs at SAINT BFDR <=0.05 against MAC3-N-tagged GFP
[2] = biological target: MAC3-N-tagged NFIC (human) (UniProt P08651); assay: as above
[3] = biological target: MAC3-N-tagged NFIB4 (human); assay: proximity labelling; BioID with UltraID (MAC3-tag) on NFI baits in Flp-In T-REx 293 cells, 50 uM biotin for 16 h; lysis with 0.1% SDS and benzonase; Strep-Tactin beads; HCIs at SAINT BFDR <=0.01 against MAC3-N-tagged GFP

Molecule	binding [1]	binding [2]	binding [3]
SMARCB1 (from UniProt Q12824 1-385)	binds	binds	
SMARCC1 (from UniProt Q92922 1-1105)	binds	binds	
SMARCE1 (from UniProt Q969G3 1-411)	binds	binds	
B1			binds
